Sequences and labels used below:
B1: il10ra_site1_normal_mot_HHH_b1_05357_000000034_0001_23_39_H_._HHH_b1_03126_0001_0000300035_0000001_1_af2pred_0001 (protein)
chain: SSSSSSEEIREEVEELLEQAKRIPDPRERAYALTRAFALANRLNDPELKKLVEEVAIKLSSSSSS
B2: il10ra_site1_normal_mot_HHH_b2_01397_000000078_0001_23_39_H_._HHH_b1_06054_0001_0000100013_0000001_0 (protein)
chain: SSSSDEEIRRYVKLTARFARFLLEEGDERAARRLVRAAEDVARRENDPELLEELQELLEELSSSS
B3: il10ra_site1_sap_22_mot_HHH_b1_05088_af2_000000046_0001_20_36_H_._HHH_b2_06324_0001_0000400020_0000001_0_0001_af2pred_0001 (protein)
chain: SSSSDREERDAKVTVRALVFYNNLSEEQEELLEELARELLERGVSLEELSRALAELVLELRSSSS
B4: il10ra_site1_sap_16_mot_HHH_b1_02641_af2_000000230_0001_39_52_H_._HHH_b2_05156_af2_0001_0001000022_0000001_0_0001 (protein)
chain: SSSSSSSAEEYLEEVEELLEEGNPEEALRLLVEALRVAYQESDEEALQALWRLAKRIASSSSSSS
B5: il10ra_site1_normal_mot_HHH_b2_05797_000000294_0001_1_19_H_._HHH_b2_04237_0001_0000300026_0000002_0 (protein)
chain: SSSSDLEEYVRAARLFAEALLEAGDPEAARRILRALLEVVRRLGNEELERLLEELLEEVEGSSSS
B6: il10ra_site1_normal_mot_HHH_b2_00475_000000107_0001_44_57_H_._HHH_b1_06647_af2_0001_0000500027_0000002_0 (protein)
chain: SSSSLEERVVELAFRAVRLLANGNPEEAEEVLKEAKELAEELNDEELERYVEIALHFVEAHSSSS
B7: il10ra_site1_normal_mot_HHH_b2_04275_000000272_0001_20_36_H_._HHH_b1_08416_0001_0000100012_0000002_0 (protein)
chain: SSSSTEASQLVYELLRKASELQHEGNEEEARELLEEAERIAEENNNEVLLATIRFLLELISSSSS
B8: il10ra_site1_normal_mot_HHH_b1_05326_000000242_0001_1_20_H_._HHH_b2_05780_af2_0001_0000300019_0000001_0 (protein)
chain: SSSSDEQERALEISVHAFRALLRGNPEEAEELLEEALELAEKNNDERLARLIRELLETIGSSSSS
B9: il10ra_site1_sap_20_mot_HHH_b2_03434_000000017_0001_1_19_H_._HHH_b2_07026_0001_0000200006_0000001_0_0001_af2pred_0001 (protein)
chain: SSSSNNEESVEILLRAAKELDDPEAVKRALKFAEAAAKDANNDELERLVREVKEQLEEELSSSSS
B10: il10ra_site1_sap_20_mot_HHH_b2_02736_000000092_0001_22_38_H_._HHH_b1_05484_0001_0000200010_0000001_0_0001 (protein)
chain: SSSSTLEYSVKFVLEVAEEAFKLGDEEKARYQLEAILEHIRQAGDEELLEEVEELLRELNSSSSS
B11: il10ra_site1_sap_19_mot_HHH_b2_03220_af2_000000223_0001_23_40_H_._HHH_b2_06349_af2_0001_0000100001_0000002_0_0001 (protein)
chain: SSSSSEEEELKELLEELEELVERGDEEKVLRAAHRILRLVFRLSDPEALERLWELMQRAGSSSSS
B12: il10ra_site1_normal_mot_8756ee2cf497b5429c717dfc0c0bcfd6_0001_000000186_0001_1_13_H_._HHH_b1_07178_af2_0001_0000300014_0000001_0_af2pred_0001 (protein)
chain: SSSSSSEEVLELLRRAMELAKEGNEEEAREVLEKAKELAEELNDRLLLFLIERLEEQLDSSSSSS
B13: il10ra_site1_normal_mot_HHH_b2_05813_000000266_0001_1_19_H_._HHH_b2_02271_af2_0001_0000100003_0000002_0_af2pred_dldesign_0_af2pred (protein)
chain: SSSSSPEEKKAFDTLVKAYQLEQAGKPEEAKKLLEETLAELRAAGDAEAARSLEALLRYLESSSS
B14: il10ra_site1_sap_23_mot_HHH_b1_05056_000000217_0001_1_20_H_._a6c796b944619e241e020fd597ddb6da_0001_0001_0000600034_0000001_0_0001 (protein)
chain: SSSSTHELYRLSREAAELLARGDAEEARKVVEEAEELAEENNNPVFLHAIRLLLRSIKLRSSSSS
B15: il10ra_site1_sap_17_mot_HHH_b1_06788_af2_000000238_0001_19_36_H_._HHH_b1_06164_af2_0001_0000500015_0000001_0_0001_af2pred_0001 (protein)
chain: SSSSNEEEKRLSQLYLEAARLWDEGNPEEAEKVTRELEELARELGDEEAKKAVEFLKALKSSSSS
B16: il10ra_site1_sap_17_mot_HHH_b1_02665_000000293_0001_1_18_H_._HHH_b1_07223_af2_0001_0000300011_0000001_0_0001 (protein)
chain: SSSSDEEVERRVEELLEEAKHITDPEELEKLIVEAAALAARANDPHLSMAVIRVYAELHQKSSSS
B17: il10ra_site1_sap_12_mot_HHH_b1_07527_000000076_0001_1_15_H_._744e782b3a2987b27db6241638482799_0001_1_0001_0000600019_0000001_0_0001_af2pred_dldesign_0_af2pred (protein)
chain: SSSSSEMEEALRLAAIARAIAEKKGDLDTVKKLFDLSVELYKTKDPELAEELRALAEKILSSSSS
B18: il10ra_site1_normal_mot_HHH_b1_07768_000000240_0001_18_35_H_._HHH_b1_03140_0001_0000200010_0000002_0 (protein)
chain: SSSSTLEFSVRFLLRHAEELLENGDPEKARFQLEKLKEHLKQAGNEELLEELEELLREVNSSSSS
B19: il10ra_site1_sap_21_mot_HHH_b1_02665_000000293_0001_1_18_H_._HHH_b1_03134_af2_0001_0000500018_0000001_0_0001 (protein)
chain: SSSSDEEYEEIKRLAQEIVEALRNNDPELVRELLEELKELAEELNDWSAEFAVRLLEEILRSSSS

Some of the results follow.

The test addresses il10ra, Q13651. The test can be described thus: yeast display titration.
Take B1: the “apparent Kd” value was “inactive: no binding seen”.

Take B2: the “apparent Kd” value is “inactive: no binding seen”.

As to B3, the “apparent Kd” value was “inactive: no binding seen”.

Take B4: the “apparent Kd” value was “inactive: no binding seen”.

On to B5, for which the “apparent Kd” value is “inactive: no binding seen”.

For B6, the “apparent Kd” value is “inactive: no binding seen”.

In the case of B7, the “apparent Kd” value was “inactive: no binding seen”.

Consider B8, for which the “apparent Kd” value was “inactive: no binding seen”.

On to B9, for which the “apparent Kd” value is “inactive: no binding seen”.

Turning to B10, the “apparent Kd” value was “inactive: no binding seen”.

For the molecule B11, the “apparent Kd” value is “inactive: no binding seen”.

In the case of B12, the “apparent Kd” value was “inactive: no binding seen”.

For B13, the “apparent Kd” value was “inactive: no binding seen”.

Regarding B14, the “apparent Kd” value is “inactive: no binding seen”.

With B15, the “apparent Kd” value is “inactive: no binding seen”.

As to B16, the “apparent Kd” value is “inactive: no binding seen”.

Take B17: the “apparent Kd” value was “inactive: no binding seen”.

Turning to B18, the “apparent Kd” value was “inactive: no binding seen”.

As for B19, the “apparent Kd” value was “inactive: no binding seen”.

These data come from article PMC10163288.
